Experimental data reported in the supplement of paper PMC9015667.
Counter-ions that a name gives are not always drawn. This is one part of the list. Many values rest on one well or one pass, so single values are uncertain.

What follows are molecules tested on UACC62P (parental melanoma line) (assay: reduction in cell viability relative to untreated/vehicle; higher = more growth inhibition). Conditions: 200 nM; 72 h.
With `CCC[C@@H]1C[C@@H](C(=O)N[C@@H]([C@H]2O[C@H](SC)[C@H](O)[C@@H](O)[C@H]2O)[C@H](C)Cl)N(C)C1` [Clindamycin hydrochloride] the “reduction in cell viability” value was less than 0%. For `CCCCOc1ccc(CC(=O)NO)cc1` [Bufexamac], the “reduction in cell viability” value was 1.58%. With `CCCCCNC(=O)N1CCC(CN(Cc2ccc(Cl)cc2)Cc2ccc([N+](=O)[O-])s2)C1` (stereo not drawn) the “reduction in cell viability” value was less than 0%. For `NC(=O)c1cccc(-c2cccc(OC(=O)NC3CCCCC3)c2)c1`, the “reduction in cell viability” value was less than 0%. With `COC1=C2C[C@@H](C)C[C@H](OC)[C@H](O)[C@@H](C)/C=C(\C)[C@H](OC(N)=O)[C@@H](OC)/C=C\C=C(/C)C(=O)NC(=CC1=O)C2=O` [Geldanamycin] the “reduction in cell viability” value was 77.8%. In the case of `Cn1cc(/C=C/C(=O)c2cccc(F)c2)cc1/C=C/C(=O)NO`, the “reduction in cell viability” value was less than 0%. In the case of `Clc1ccc(CCC(Cn2ccnc2)Sc2c(Cl)cccc2Cl)cc1` (stereo not drawn) [Butoconazole nitrate], the “reduction in cell viability” value was less than 0%. For `CCOc1ccc(Nc2nc(-c3c(C)nc4ccccn34)cs2)cc1`, the “reduction in cell viability” value was 50.2%. `Nc1nc(=O)n([C@H]2C[C@H](O)[C@@H](CO)O2)cc1F` was tested, and the “reduction in cell viability” value was 13%. With `C=CC(=O)N1CCC[C@@H](n2nc(-c3ccc(Oc4ccccc4)cc3)c3c(N)ncnc32)C1` the “reduction in cell viability” value was 7.79%. With `O=C1CCCC(=O)C1C(=O)c1ccc(C(F)(F)F)cc1[N+](=O)[O-]` [Nitisinone] the “reduction in cell viability” value was less than 0%. For `CCn1c(-c2nonc2N)nc2cnc(Oc3cccc(NC(=O)c4ccc(OCCN5CCOCC5)cc4)c3)cc21`, the “reduction in cell viability” value was less than 0%. `CC[C@H](CO)Nc1nc(NCc2ccccc2)c2ncn(C(C)C)c2n1` [Seliciclib] was tested, and the “reduction in cell viability” value was less than 0%. In the case of `CCOC(=O)N1CCN(/[N+]([O-])=N/Oc2cc(O/N=[N+](\[O-])N3CCN(C(=O)OCC)CC3)c([N+](=O)[O-])cc2[N+](=O)[O-])CC1` [Double JS-K], the “reduction in cell viability” value was less than 0%. In the case of `CN(Cc1cc(Br)cc(Br)c1N)C1CCCCC1` [Bromhexine hydrochloride], the “reduction in cell viability” value was less than 0%. In the case of `Fc1cc(-c2cccc3ncc(-c4cnn(C5CCNCC5)c4)nc23)cc(F)c1CN1CCOCC1`, the “reduction in cell viability” value was less than 0%. In the case of `COc1ccc(-n2nc(C(N)=O)c3c2C(=O)N(c2ccc(N4CCCCC4=O)cc2)CC3)cc1` [Apixaban], the “reduction in cell viability” value was less than 0%. For `CCCCC(F)(F)[C@@]1(O)CC[C@H]2[C@@H](CC(=O)[C@@H]2CCCCCCC(=O)O)O1` [Lubiprostone], the “reduction in cell viability” value was less than 0%. `CC[C@]1(O)C[C@@H]2CN(CCc3c([nH]c4ccccc34)[C@@](C(=O)OC)(c3cc4c(cc3OC)N(C)[C@H]3[C@@](O)(C(=O)OC)[C@H](OC(C)=O)[C@]5(CC)C=CCN6CC[C@]43[C@@H]65)C2)C1` [Vinblastine] was tested, and the “reduction in cell viability” value was 44.5%. `CCN(CC)CCOc1ccc(C(=C(Cl)c2ccccc2)c2ccccc2)cc1` [Clomifene citrate] was tested, and the “reduction in cell viability” value was less than 0%. For `CCN(CC)CCCCNc1nc2cc(Cl)c(Cl)cc2nc1-c1ccc(-c2cccs2)s1`, the “reduction in cell viability” value was less than 0%. In the case of `NNCCc1ccccc1` [Phenelzine], the “reduction in cell viability” value was less than 0%. For `C[C@H](NC(=O)Cc1cc(F)cc(F)c1)C(=O)N[C@@H]1C(=O)N(C)c2ccccc2-c2ccccc21`, the “reduction in cell viability” value was less than 0%. For `CCN(CC)CCCC(C)Nc1nc(C)cc(Nc2ccc3nc(C)cc(N)c3c2)n1` (stereo not drawn), the “reduction in cell viability” value was less than 0%. For `Cc1cc2nc3c(=O)[nH]c(=O)nc-3n(C[C@H](O)[C@H](O)[C@H](O)CO)c2cc1C`, the “reduction in cell viability” value was less than 0%. For `Nc1ccn([C@@H]2O[C@H](CO)[C@@H](O)[C@H]2O)c(=O)n1` [Cytidine], the “reduction in cell viability” value was less than 0%. For `O=S(=O)(O)CCS` [Mesna], the “reduction in cell viability” value was less than 0%. For `CNC(=O)c1cc(Oc2ccc(NC(=O)Nc3ccc(Cl)c(C(F)(F)F)c3)cc2)ccn1` [Sorafenib], the “reduction in cell viability” value was less than 0%. In the case of `O=C(c1ccc(Nc2nccc(-c3cc4ccccc4s3)n2)cc1)N1CCC(N2CCCC2)CC1`, the “reduction in cell viability” value was less than 0%. With `COC(=O)N1CCN(Cc2cccc(NC(=O)Nc3ccc(C)nc3)c2F)CC1` [Omecamtiv mecarbil] the “reduction in cell viability” value was less than 0%. With `CCC1=C[C@@H]2CN(C1)Cc1c([nH]c3ccccc13)[C@@](C(=O)OC)(c1cc3c(cc1OC)N(C)[C@H]1[C@@](O)(C(=O)OC)[C@H](OC(C)=O)[C@]4(CC)C=CCN5CC[C@]31[C@@H]54)C2` [Vinorelbine tartrate] the “reduction in cell viability” value was 43%. In the case of `CC(=O)Nc1cccc(-n2c(=O)n(C3CC3)c(=O)c3c(Nc4ccc(I)cc4F)n(C)c(=O)c(C)c32)c1` [Trametinib], the “reduction in cell viability” value was 58.6%. For `CC(C)=CC[C@@H](O)C1=CC(=O)c2c(O)ccc(O)c2C1=O` [Shikonin], the “reduction in cell viability” value was 1.91%.
